Data set [1] has as its system poly-IgG from human serum (h-poly-IgG). Put plainly: Microtiter plate chromatography of resins: binding and elution of human poly-IgG. The following applies: mass eluted (glycine pH 2.5) / mass injected. Here is the method: (§1) Resins were assessed in packed mode by microtiter plate chromatography. For each column, approximately 30 μl of resin were transferred to a 384-well filter plate and sealed with appropriate top fits. Columns with rProtein A SEPHAROSE 4 FF and MABSORBENT A2P HF were included as controls.
(§2) Either 3.3 cv of whole IgGs dissolved at 0.5 mg ml^−1 in PBS or undiluted host cell proteins (HCP) were injected onto columns.
(§3) Unbound protein was washed from columns with 5 cv of PBS prior to elution with 5 cv of glycine buffer at pH 2.5. […] During injection of samples, speed was reduced to 10 g and centrifugation time increased to 5-10 min. Effluent fractions were collected in 384-well plates and concentrations of protein were analyzed by Bradford assay. Protein masses mi, mft and me (see below) were calculated as the product of fraction volume and measured protein concentration.
(§4) The fraction of bound protein was calculated as the difference between the total mass of protein injected mi and the mass of protein detected in the flowthrough mft, divided by the total mass of protein injected.
(§5) The yield of protein was calculated as the mass of protein eluted me, divided by the mass of protein injected mi.
(§6) The fraction of bound protein and the yield of protein were calculated for each resin based on data for whole IgG-antibodies. In the case of host cell proteins, only the fraction of bound protein is given. Selectivity of resins was calculated from data for Bevacizumab whole IgG and host cell proteins. Due to limited experimental precision, selectivity was truncated for values beyond 10.

The test system of data set [2] is Tocilizumab. Description: Microtiter plate chromatography of resins: binding and elution of Tocilizumab. The following applies: mass eluted (glycine pH 2.5) / mass injected. Here is the method: as §1, §2, §3, §4, §5, §6

On to `NCCOCCOCCn1cnc2cc(C(=O)Nc3nc(-c4ccccn4)cs3)ccc21`, for which the “h-poly-IgG Yield” value in data set [1] is 95%. Further, the “Tocilizumab Yield” value in data set [2] turned out to be 103%. In the same order, the values of `Cc1nc2cc(C(=O)Nc3nnc(-c4ccco4)s3)ccc2n1CCOCCOCCN` are 97% and 96%. For `Cn1nc(C(=O)Nc2ccc3c(c2)ncn3CCCN)c2ccccc21` [Ligand L01, 1-(3-Amino-1-propyl)-5-[(1-methylindazol-3-yl)carboxamido]benzimidazole], in that order: 97% and 110%. In the same order, the values of `Cn1nc(NC(=O)c2ccc3c(c2)ncn3CCCN)c2ccccc21` [Ligand L02, 1-(3-Amino-1-propyl)benzimidazole-5-carboxylic acid N-(1-methyl-3-indazolyl) amide] are 100% and 97%. On to `Cn1nc(C(=O)Nc2ccc3c(c2)C(=O)N(CCCN)CCO3)c2ccccc21` [Ligand L03, 4-(3-Amino-1-propyl)-7-[(1-methylindazol-3-yl)carboxamido]-2,3,4,5-tetrahydrobenzo[f][1,4]oxazepin-5-one], for which the “Tocilizumab Yield” value in data set [2] came out at 103%. Consider `COc1ccc(NC(=O)c2nn(CCCN)c3ccccc23)cc1C(N)=O` [Ligand L04, 1-(3-Amino-1-propyl)indazole-3-carboxylic acid N-(3-carbamoyl-4-methoxyphenyl) amide], for which the “h-poly-IgG Yield” value in data set [1] is on record as 86%. In data set [2], the “Tocilizumab Yield” value is 97%. Take `CCc1nnc(NC(=O)c2ccc3c(c2)ncn3CCCN)s1` [Ligand L07, 1-(3-Amino-1-propyl)benzimidazole-5-carboxylic acid N-(2-ethyl-1,3,4-thiadiazol-5-yl) amide]: the “h-poly-IgG Yield” value in data set [1] is 97%. The “Tocilizumab Yield” value in data set [2] was found to be 100%. For `NCCCn1cnc2cc(C(=O)Nc3nc4ccccc4o3)ccc21` [Ligand L08, 1-(3-Amino-1-propyl)benzimidazole-5-carboxylic acid N-(benzoxazol-2-yl) amide], in that order: 95% and 100%. Consider `NCCCn1cnc2cc(C(=O)Nc3nnc(-c4ccc5c(c4)OCO5)s3)ccc21` [Ligand L09, 1-(3-Amino-1-propyl)benzimidazole-5-carboxylic acid N-[2-(3,4-methylenedioxyphenyl)-1,3,4-thiadiazol-5-yl] amide], for which the “h-poly-IgG Yield” value in data set [1] is listed as 106%. Besides, the “Tocilizumab Yield” value in data set [2] turned out to be 100%. Regarding `NCCCn1cnc2cc(C(=O)Nc3nc4ccccc4s3)ccc21` [Ligand L10, 1-(3-Amino-1-propyl)benzimidazole-5-carboxylic acid N-(benzothiazol-2-yl) amide], the “h-poly-IgG Yield” value in data set [1] is 104%. The “Tocilizumab Yield” value in data set [2] came to 103%. Turning to `Cc1cc(NC(=O)c2ccc3c(c2)ncn3CCCN)nn1-c1ccccc1` [Ligand L11, 1-(3-Amino-1-propyl)benzimidazole-5-carboxylic acid N-(5-methyl-1-phenylpyrazol-3-yl) amide], the “h-poly-IgG Yield” value in data set [1] turned out to be 87%. Further, the “Tocilizumab Yield” value in data set [2] stood at 90%. In the same order, the values of `CCSc1nnc(NC(=O)c2ccc3c(c2)ncn3CCCN)s1` [Ligand L12, 1-(3-Amino-1-propyl)benzimidazole-5-carboxylic acid N-(2-ethylthio-1,3,4-thiadiazol-5-yl) amide] are 96% and 106%.

Consider `NCCCn1cnc2cc(C(=O)Nc3nncs3)ccc21` [Ligand L13, 1-(3-Amino-1-propyl)benzimidazole-5-carboxylic acid N-(1,3,4-thiadiazol-2-yl) amide], for which the “h-poly-IgG Yield” value in data set [1] was 93%. Besides, the “Tocilizumab Yield” value in data set [2] is given as 103%. For `Cc1nnc(NC(=O)c2ccc3c(c2)ncn3CCCN)s1` [Ligand L14, 1-(3-Amino-1-propyl)benzimidazole-5-carboxylic acid N-(2-methyl-1,3,4-thiadiazol-5-yl) amide], in that order: 90% and 101%. In the same order, the values of `Cc1csc(NC(=O)c2ccc3c(c2)ncn3CCCN)n1` [Ligand L15, 1-(3-Amino-1-propyl)benzimidazole-5-carboxylic acid N-(4-methylthiazol-2-yl) amide] are 93% and 103%. For `NCCCn1cnc2cc(C(=O)Nc3nccs3)ccc21` [Ligand L16, 1-(3-Amino-1-propyl)benzimidazole-5-carboxylic acid N-(thiazol-2-yl) amide], in that order: 92% and 103%. For the compound `Cc1cnc(NC(=O)c2ccc3c(c2)ncn3CCCN)s1` [Ligand L17, 1-(3-Amino-1-propyl)benzimidazole-5-carboxylic acid N-(5-methylthiazol-2-yl) amide], the “h-poly-IgG Yield” value in data set [1] is on record as 96%. Moreover, in data set [2], the “Tocilizumab Yield” value is 100%. Take `NCCCNc1ccc(C(=O)Nc2nnc(-c3ccco3)s2)cc1[N+](=O)[O-]` [Ligand L18, 4-[(3-Amino-1-propyl)amino]-3-nitrobenzoic acid N-[5-(2-furyl)-1,3,4-thiadiazol-2-yl]amide]: in data set [1], the “h-poly-IgG Yield” value worked out at 107%. Further, in data set [2], the “Tocilizumab Yield” value amounted to 100%.

In the case of `NCCCOc1ccc(C(=O)Nc2nnc(-c3ccco3)s2)cc1` [Ligand L20, 4-[(1-Amino-3-propyl)oxy]benzoic acid N-[5-(2-furyl)-1,3,4-thiadiazol-2-yl] amide], the “h-poly-IgG Yield” value in data set [1] is reported as 105%. Besides, the “Tocilizumab Yield” value in data set [2] worked out at 92%.

For `NCCCn1cnc2cc(C(=O)Nc3nnc(-c4ccncc4)s3)ccc21` [Ligand L21, 1-(3-Amino-1-propyl)benzimidazole-5-carboxylic acid N-[5-(4-pyridyl)-1,3,4-thiadiazol-2-yl]amide], the “h-poly-IgG Yield” value in data set [1] amounted to 81%. Moreover, the “Tocilizumab Yield” value in data set [2] is on record as 86%. As to `NCCCn1cnc2cc(C(=O)Nc3nc(-c4ccccc4)ns3)ccc21` [Ligand L22, 1-(3-Amino-1-propyl)benzimidazole-5-carboxylic acid N-(3-phenyl-1,2,4-thiadiazol-5-yl) amide], the “h-poly-IgG Yield” value in data set [1] is recorded as 108%. Also, the “Tocilizumab Yield” value in data set [2] came to 94%. In the same order, the values of `NCCCn1c(=O)c(=O)[nH]c2cc(C(=O)Nc3nnc(-c4ccco4)s3)ccc21` [Ligand L28, 1-(3-Amino-1-propyl)-2,3-dioxo-1,2,3,4-tetrahydroquinoxaline-6-carboxylic acid N-[5-(2-furyl)-1,3,4-thiadiazol-2-yl]amide] are 72% and 101%.

As to `NCCCn1cnc2cc(NC(=O)c3cn4ccsc4n3)ccc21` [Ligand L30, 1-(3-Amino-1-propyl)-5-[(imidazo-[2,1-b]thiazol-6-yl)carboxamido]benzimidazole], in data set [1], the “h-poly-IgG Yield” value is recorded as 88%. Further, the “Tocilizumab Yield” value in data set [2] amounted to 99%. In the same order, the values of `Cn1c(CCCCCN)nc2cc(C(=O)Nc3nnc(-c4ccco4)s3)ccc21` [Ligand L31, 2-(5-Amino-1-pentyl)-1-methylbenzimidazole-5-carboxylic acid N-[5-(2-furyl)-1,3,4-thiadiazol-2-yl]amide] are 95% and 95%. On to `NCCCn1cnc2cc(C(=O)Nc3nc4c(s3)CCC4)ccc21` [Ligand L32, 1-(3-Amino-1-propyl)benzimidazole-5-carboxylic acid N-(5,6-dihydro-(4H)-cyclopentathiazol-2-yl) amide], for which, in data set [1], the “h-poly-IgG Yield” value was 91%. Moreover, in data set [2], the “Tocilizumab Yield” value was 98%. Consider `NCCCn1cnc2cc(C(=O)Nc3nnc(-c4ccccc4)s3)ccc21` [Ligand L33, 1-(3-Amino-1-propyl)benzimidazole-5-carboxylic acid N-(2-phenyl-1,3,4-thiadiazol-5-yl) amide], for which the “h-poly-IgG Yield” value in data set [1] was determined as 94%. For the same compound, the “Tocilizumab Yield” value in data set [2] is recorded as 100%. In the case of `Cc1ccc(NC(=O)c2ccc3c(c2)ncn3CCCN)nn1` [Ligand L34, 1-(3-Amino-1-propyl)benzimidazole-5-carboxylic acid N-(6-methylpyridazin-3-yl) amide], the “h-poly-IgG Yield” value in data set [1] worked out at 74%. The “Tocilizumab Yield” value in data set [2] is reported as 84%. In the same order, the values of `NCCCn1cnc2cc(C(=O)Nc3nnc(C4CC4)s3)ccc21` [Ligand L35, 1-(3-Amino-1-propyl)benzimidazole-5-carboxylic acid N-(2-cyclopropyl-1,3,4-thiadiazol-5-yl) amide] are 96% and 98%.

Turning to `Cc1nsc(NC(=O)c2ccc3c(c2)ncn3CCCN)n1` [Ligand L36, 1-(3-Amino-1-propyl)benzimidazole-5-carboxylic acid N-(3-methyl-1,2,4-thiadiazol-5-yl) amide], the “h-poly-IgG Yield” value in data set [1] is recorded as 87%. Further, the “Tocilizumab Yield” value in data set [2] is 96%. In the case of `NCCOCCOc1ccc(C(=O)Nc2nnc(-c3ccco3)s2)cc1` [Ligand L37, 4-(5-Amino-3-oxa-1-pentyloxy)benzoic acid N-[5-(2-furyl)-1,3,4-thiadiazol-2-yl] amide], the “h-poly-IgG Yield” value in data set [1] is recorded as 101%. Moreover, the “Tocilizumab Yield” value in data set [2] is given as 103%. On to `NCCCOc1ccc(C(=O)Nc2nc(-c3ccccn3)cs2)cc1` [Ligand L38, 4-[(1-Amino-3-propyl)oxy]benzoic acid N-[4-(2-pyridyl)thiazol-2-yl] amide], for which, in data set [1], the “h-poly-IgG Yield” value is listed as 98%. Moreover, the “Tocilizumab Yield” value in data set [2] is 97%.

For the origin of these results see patent US9745339B2 (GRAFFINITY PHARMACEUTICALS GMBH, priority 2012, dated 2017).
